# Where a name gives a salt, the structure may show the parent alone. Hit rate of the full screen: of about 5,300 compounds, about 130 (2.5%) showed an effect of 50% or more. The list shows a part of the results.
# Test system: M. mycetomatis strain mm55
# Conditions: primary screen, metabolic activity vs growth control; 96 h, 2 µM; inhibitor
row,SMILES,% viability [%]
1,"c1ccc(C(O[C@@H]2CCCN(CCc3ccc4c(c3)OCO4)C2)c2ccccc2)cc1 [ONC0003094, zamifenacin]",77.83
2,"CC1C[C@H]2[C@@H]3CCC4=CC(=O)C=C[C@]4(C)[C@@]3(Cl)[C@@H](O)C[C@]2(C)[C@@]1(O)C(=O)CO (some centres unmarked) [ONC0000301, beclomethasone]",73.26
3,"Nc1nc2cc(-c3ccc4ncc(C(=O)N5CCOCC5)n4c3)ccc2o1 [ONC0002420, serabelisib]",110
4,"CC(=O)OCC(=O)[C@@]1(O)[C@H](C)C[C@H]2[C@@H]3CCC4=CC(=O)C=C[C@]4(C)[C@@]3(F)[C@@H](O)C[C@@]21C [ONC0000405, dexamethasone acetate]",56.97
5,"COc1ncnc(NS(=O)(=O)c2ccc(N)cc2)c1OC [ONC0005402, sulfadoxine]",115.4
6,"OC[C@H]1O[C@@H](n2cnc3c(N[C@H]4CCC[C@@H]4O)ncnc32)[C@H](O)[C@@H]1O [ONC0001633, gr79236]",111
7,"NS(=O)(=O)c1cc2c(cc1C(F)(F)F)NCNS2(=O)=O [ONC0000565, hydroflumethiazide]",64.98
8,"Cc1ncc(-c2ccnc(Nc3ccc(S(C)(=O)=O)cc3)n2)n1C(C)C [ONC0004311, azd5438]",78.2
9,"COC1(C2=NCCN2)COc2ccccc2O1 (centres unmarked) [ONC0001691, rx821002]",76.36
10,"C#Cc1cnc2nc(O)n(C(CC)CC)c2n1 [ONC0001165, tirasemtiv]",102.8
11,"NC(=O)CCCCC1CCSS1 (centres unmarked) [ONC0004048, lipoamide]",65.99
12,"CCCCCCCC/C=C\CCCCCCCC(N)=O [ONC0000742, oleamide]",75.94
13,"COc1ccccc1N1CCN(CCCCNC(=O)c2ccc(-c3ccc(C(C)=O)cc3)cc2)CC1 [ONC0003432, gr 103691]",60.78
14,"N[C@@H](Cc1c[nH]c2ccccc12)C(=O)O [ONC0003218, tryptophan l]",86.81
15,"O=C(OOC(=O)c1ccccc1)c1ccccc1 [ONC0003111, benzoyl peroxide]",80.87
16,"O=C(O)c1nc(=O)[nH]c(=O)[nH]1 [ONC0003278, oxonic acid potassium salt]",68.48
17,"NCCCC[C@H](N)C(=O)O [ONC0002175, llysine]",93.09
18,"CC(O)Cn1cnc2c1c(=O)n(C)c(=O)n2C (centres unmarked) [ONC0003979, proxyphylline]",87.7
19,"CCCCCCCCCC(=O)OC1(c2ccc(Cl)cc2)CCN(CCCC(=O)c2ccc(F)cc2)CC1 [ONC0001977, haloperidoldecanoate]",86.06
20,"CN1CC[C@@H](NC(=O)Nc2ccc(C#N)cc2)C[C@@H]1c1nc2ccccc2[nH]1 [ONC0001162, glasdegib]",66.04
21,"OCc1c[nH]c2ccccc12 [ONC0002801, indole3carbinol]",98.39

# Fetched by structure from the entries so far, 2 records:
row,SMILES,% viability [%]
20,"CN1CC[C@@H](NC(=O)Nc2ccc(C#N)cc2)C[C@@H]1c1nc2ccccc2[nH]1 [ONC0001162, glasdegib]",66.04
14,"N[C@@H](Cc1c[nH]c2ccccc12)C(=O)O [ONC0003218, tryptophan l]",86.81

# Next part

row,SMILES,% viability [%]
1,"Cc1ccc(C(=O)Nc2ccc(Oc3cc4cnn(C)c4cc3-c3cn[nH]c3)c(F)c2)c(=O)n1-c1ccc(F)cc1 [ONC0002048, merestinib]",73.93
2,"N#CCNC(=O)c1ccc(-c2ccnc(Nc3ccc(N4CCOCC4)cc3)n2)cc1 [ONC0004993, momelotinib cyt387]",102.1
3,"COC(=O)C1=C(C)NC(C)=C([N+](=O)[O-])[C@H]1c1ccccc1C(F)(F)F [ONC0001649, bayk8644s]",97.3
4,"CS(=O)(=O)OCCCCOS(C)(=O)=O [ONC0003245, busulfan]",72.69
5,"CCCCCCCCC(=O)NCc1cc(OC)c(O)cc1I [ONC0002482, 6iodonordihydrocapsaicin]",59.24
6,"O=C(/C=C/c1ccc(O)cc1)c1ccc(O)cc1O [ONC0005030, isoliquiritigenin]",109.3
7,"N#Cc1ccc(-c2csc(NN=C3CCCC3)n2)cc1 [ONC0001251, remodelin]",96.62
8,"Cc1c(NC(=O)c2cccnc2)c(=O)n(-c2ccccc2)n1C [ONC0002863, nifenazone]",118
9,"N[C@@H](Cn1oc(=O)[nH]c1=O)C(=O)O [ONC0003612, lquisqualicacid]",65.05
10,"COCCOCCOc1ccc(C2=N[C@@](C)(C(=O)O)CS2)c(O)c1 [ONC0001255, sp420]",62.06
11,"CN1CCN(CCCCN2C(=O)CN(/N=C/c3ccc(-c4ccc(Cl)cc4)o3)C2=O)CC1 [ONC0001074, azimilide dihydrochloride]",80.91
12,"CC[C@@H]1C(=O)OC[C@@H]1Cc1cncn1C [ONC0000470, pilocarpine nitrate]",105.7
13,"CN(C)C(=O)c1ccc(S(=O)(=O)c2ccc(NC(=O)C(C)(O)C(F)(F)F)c(Cl)c2)cc1 (centres unmarked) [ONC0005136, azd7545]",97.4
14,"O=c1c(-n2ccnn2)c[nH]n1-c1cc(N2CCOCC2)ncn1 [ONC0000977, molidustat]",87.14
15,"CN1CCc2c(c3ccccc3n2Cc2ccc(C(=O)NO)cc2)C1 [ONC0005225, tubastatin a hydrochloride]",130.4
16,"C=C(C)[C@@H]1CC[C@]2(C(=O)O)CC[C@]3(C)[C@H](CC[C@@H]4[C@@]5(C)CC[C@H](OC(=O)CC(C)(C)C(=O)O)C(C)(C)[C@@H]5CC[C@]43C)[C@@H]12 [ONC0002104, bevirimat]",64.85
17,"Cc1cnc(-c2cc(N3CCN(C(=O)CCS(C)(=O)=O)CC3)ncc2Cl)c(C)c1 [ONC0005099, pf5274857]",101
18,"Cc1c(CN2CCN(C(=O)[C@H](C)O)CC2)sc2c(N3CCOCC3)nc(-c3cnc(N)nc3)nc12 [ONC0005040, apitolisib gdc0980 rg7422]",91.34
19,"CN1C(=O)CC[C@H]1c1cccnc1 [ONC0004108, cotinine]",114.3
20,"CCn1c(=O)[nH]c2cc(Cl)c(Cl)cc21 [ONC0002537, dcebio]",73.52
